This is an account of results in paper PMC9908615.

Chains of the proteins cited; added tags and fusions are not shown.
UniProt Q9Z0R4: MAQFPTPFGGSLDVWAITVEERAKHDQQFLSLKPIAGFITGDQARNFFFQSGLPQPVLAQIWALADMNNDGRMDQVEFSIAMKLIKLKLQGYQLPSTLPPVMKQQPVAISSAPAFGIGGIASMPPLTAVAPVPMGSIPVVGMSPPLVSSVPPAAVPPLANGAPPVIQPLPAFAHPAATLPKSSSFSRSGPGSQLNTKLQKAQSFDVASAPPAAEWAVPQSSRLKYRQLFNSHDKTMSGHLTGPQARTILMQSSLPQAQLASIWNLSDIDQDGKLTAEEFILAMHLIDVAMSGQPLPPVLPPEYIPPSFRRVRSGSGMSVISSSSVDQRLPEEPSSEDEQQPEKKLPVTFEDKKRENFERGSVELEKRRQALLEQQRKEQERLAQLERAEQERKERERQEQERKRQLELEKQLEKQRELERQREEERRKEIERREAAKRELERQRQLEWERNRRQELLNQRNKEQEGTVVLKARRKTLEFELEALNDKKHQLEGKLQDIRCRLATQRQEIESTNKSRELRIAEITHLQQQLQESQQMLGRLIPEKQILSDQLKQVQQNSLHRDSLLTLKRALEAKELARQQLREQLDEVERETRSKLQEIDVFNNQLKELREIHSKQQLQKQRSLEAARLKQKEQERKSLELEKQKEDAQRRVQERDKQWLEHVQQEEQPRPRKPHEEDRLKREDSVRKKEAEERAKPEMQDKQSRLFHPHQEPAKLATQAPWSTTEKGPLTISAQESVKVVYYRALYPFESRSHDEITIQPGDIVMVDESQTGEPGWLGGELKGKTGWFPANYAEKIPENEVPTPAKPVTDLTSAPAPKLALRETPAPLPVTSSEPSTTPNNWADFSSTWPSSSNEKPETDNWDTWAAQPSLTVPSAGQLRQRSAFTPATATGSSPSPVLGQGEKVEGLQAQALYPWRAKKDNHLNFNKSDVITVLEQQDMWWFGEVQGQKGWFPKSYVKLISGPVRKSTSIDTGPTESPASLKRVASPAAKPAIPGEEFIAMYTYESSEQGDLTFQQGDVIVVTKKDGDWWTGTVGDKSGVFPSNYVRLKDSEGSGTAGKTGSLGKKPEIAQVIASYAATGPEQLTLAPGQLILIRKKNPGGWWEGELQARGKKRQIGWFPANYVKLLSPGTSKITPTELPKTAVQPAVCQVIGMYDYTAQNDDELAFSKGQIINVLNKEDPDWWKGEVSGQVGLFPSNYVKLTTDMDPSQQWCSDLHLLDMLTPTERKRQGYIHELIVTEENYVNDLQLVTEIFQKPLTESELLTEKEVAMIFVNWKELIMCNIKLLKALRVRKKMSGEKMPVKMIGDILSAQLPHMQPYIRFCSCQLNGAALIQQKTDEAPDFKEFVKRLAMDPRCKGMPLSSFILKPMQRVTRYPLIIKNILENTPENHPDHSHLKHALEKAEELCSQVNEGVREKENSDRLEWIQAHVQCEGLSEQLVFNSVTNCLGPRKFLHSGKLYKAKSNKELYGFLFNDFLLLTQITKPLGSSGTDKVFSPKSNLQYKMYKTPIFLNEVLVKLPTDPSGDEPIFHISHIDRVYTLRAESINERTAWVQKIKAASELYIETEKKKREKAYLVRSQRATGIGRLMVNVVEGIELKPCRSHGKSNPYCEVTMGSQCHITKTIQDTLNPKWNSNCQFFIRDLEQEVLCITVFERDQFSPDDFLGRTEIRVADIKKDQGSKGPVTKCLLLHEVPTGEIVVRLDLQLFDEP
UniProt Q61194: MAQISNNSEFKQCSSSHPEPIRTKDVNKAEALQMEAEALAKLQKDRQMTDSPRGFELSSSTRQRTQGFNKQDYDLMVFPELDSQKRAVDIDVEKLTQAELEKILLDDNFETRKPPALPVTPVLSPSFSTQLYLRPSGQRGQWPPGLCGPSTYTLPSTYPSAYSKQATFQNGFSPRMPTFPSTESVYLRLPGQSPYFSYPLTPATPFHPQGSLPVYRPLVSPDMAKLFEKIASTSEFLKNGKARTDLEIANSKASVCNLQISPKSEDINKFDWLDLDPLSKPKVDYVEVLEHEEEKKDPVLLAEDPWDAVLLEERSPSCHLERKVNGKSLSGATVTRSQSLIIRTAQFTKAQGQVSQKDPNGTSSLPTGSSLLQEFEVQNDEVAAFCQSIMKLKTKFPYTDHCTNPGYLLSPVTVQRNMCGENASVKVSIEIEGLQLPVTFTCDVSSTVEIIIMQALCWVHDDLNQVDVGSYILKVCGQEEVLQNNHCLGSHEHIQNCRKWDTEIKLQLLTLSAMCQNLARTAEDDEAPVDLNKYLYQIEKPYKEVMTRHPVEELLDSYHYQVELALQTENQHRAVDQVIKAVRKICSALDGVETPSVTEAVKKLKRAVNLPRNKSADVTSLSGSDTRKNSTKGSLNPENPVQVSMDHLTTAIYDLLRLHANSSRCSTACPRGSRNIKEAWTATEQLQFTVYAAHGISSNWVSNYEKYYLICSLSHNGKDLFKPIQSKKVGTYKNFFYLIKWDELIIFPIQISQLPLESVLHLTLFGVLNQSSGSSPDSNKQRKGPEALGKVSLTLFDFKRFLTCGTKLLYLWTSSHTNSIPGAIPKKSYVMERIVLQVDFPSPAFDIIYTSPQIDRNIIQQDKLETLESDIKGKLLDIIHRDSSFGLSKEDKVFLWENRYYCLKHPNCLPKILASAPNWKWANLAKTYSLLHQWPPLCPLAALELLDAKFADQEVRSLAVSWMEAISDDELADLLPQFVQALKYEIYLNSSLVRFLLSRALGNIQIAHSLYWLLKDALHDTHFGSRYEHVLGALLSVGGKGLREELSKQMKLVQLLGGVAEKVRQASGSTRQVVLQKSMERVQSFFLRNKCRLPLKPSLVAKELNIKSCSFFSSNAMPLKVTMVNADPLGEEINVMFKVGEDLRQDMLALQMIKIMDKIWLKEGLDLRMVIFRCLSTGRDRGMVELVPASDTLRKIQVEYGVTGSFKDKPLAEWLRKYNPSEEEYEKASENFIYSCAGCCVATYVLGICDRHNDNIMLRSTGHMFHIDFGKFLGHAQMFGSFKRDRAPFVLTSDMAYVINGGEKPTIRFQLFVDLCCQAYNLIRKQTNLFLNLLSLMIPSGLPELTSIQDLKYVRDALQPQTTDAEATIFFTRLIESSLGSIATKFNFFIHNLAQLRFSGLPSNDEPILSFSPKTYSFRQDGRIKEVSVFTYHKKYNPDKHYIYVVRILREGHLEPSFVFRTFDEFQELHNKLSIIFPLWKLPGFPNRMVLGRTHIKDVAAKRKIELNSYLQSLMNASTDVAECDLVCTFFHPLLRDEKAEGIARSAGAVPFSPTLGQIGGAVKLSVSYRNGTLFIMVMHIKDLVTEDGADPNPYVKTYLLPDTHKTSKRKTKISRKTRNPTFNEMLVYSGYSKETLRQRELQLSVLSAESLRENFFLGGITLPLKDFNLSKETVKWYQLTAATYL
UniProt Q04207: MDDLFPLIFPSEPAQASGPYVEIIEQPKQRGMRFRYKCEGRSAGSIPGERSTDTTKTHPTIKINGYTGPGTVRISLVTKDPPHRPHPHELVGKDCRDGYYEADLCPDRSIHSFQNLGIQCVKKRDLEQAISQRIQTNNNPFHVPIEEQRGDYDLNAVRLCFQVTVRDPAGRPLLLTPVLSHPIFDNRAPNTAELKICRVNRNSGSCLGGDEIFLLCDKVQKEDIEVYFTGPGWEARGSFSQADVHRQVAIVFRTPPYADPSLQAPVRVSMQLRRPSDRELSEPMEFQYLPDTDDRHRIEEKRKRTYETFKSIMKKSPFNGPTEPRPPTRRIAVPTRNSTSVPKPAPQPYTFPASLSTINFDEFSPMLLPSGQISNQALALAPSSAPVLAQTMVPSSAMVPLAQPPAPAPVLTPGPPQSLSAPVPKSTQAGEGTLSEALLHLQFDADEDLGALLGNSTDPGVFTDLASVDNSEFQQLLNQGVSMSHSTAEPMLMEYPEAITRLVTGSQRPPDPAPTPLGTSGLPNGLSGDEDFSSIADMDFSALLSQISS
UniProt P33215: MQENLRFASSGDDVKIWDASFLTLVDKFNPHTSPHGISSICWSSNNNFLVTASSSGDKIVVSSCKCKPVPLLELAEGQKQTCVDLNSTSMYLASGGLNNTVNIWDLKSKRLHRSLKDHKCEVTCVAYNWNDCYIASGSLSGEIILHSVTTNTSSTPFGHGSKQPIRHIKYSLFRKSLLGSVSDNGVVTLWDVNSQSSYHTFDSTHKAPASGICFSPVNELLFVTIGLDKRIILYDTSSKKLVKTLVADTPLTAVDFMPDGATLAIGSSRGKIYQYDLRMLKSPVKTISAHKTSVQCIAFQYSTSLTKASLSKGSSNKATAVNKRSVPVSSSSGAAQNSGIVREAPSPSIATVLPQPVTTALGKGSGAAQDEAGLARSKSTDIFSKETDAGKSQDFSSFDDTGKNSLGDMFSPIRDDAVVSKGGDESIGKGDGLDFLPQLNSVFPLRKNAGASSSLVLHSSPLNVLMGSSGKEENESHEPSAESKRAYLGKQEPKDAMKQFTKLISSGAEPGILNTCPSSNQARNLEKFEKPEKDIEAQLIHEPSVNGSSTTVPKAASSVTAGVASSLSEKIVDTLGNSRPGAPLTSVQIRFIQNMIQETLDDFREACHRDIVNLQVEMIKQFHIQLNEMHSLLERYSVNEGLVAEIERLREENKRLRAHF
UniProt Q8BKI2: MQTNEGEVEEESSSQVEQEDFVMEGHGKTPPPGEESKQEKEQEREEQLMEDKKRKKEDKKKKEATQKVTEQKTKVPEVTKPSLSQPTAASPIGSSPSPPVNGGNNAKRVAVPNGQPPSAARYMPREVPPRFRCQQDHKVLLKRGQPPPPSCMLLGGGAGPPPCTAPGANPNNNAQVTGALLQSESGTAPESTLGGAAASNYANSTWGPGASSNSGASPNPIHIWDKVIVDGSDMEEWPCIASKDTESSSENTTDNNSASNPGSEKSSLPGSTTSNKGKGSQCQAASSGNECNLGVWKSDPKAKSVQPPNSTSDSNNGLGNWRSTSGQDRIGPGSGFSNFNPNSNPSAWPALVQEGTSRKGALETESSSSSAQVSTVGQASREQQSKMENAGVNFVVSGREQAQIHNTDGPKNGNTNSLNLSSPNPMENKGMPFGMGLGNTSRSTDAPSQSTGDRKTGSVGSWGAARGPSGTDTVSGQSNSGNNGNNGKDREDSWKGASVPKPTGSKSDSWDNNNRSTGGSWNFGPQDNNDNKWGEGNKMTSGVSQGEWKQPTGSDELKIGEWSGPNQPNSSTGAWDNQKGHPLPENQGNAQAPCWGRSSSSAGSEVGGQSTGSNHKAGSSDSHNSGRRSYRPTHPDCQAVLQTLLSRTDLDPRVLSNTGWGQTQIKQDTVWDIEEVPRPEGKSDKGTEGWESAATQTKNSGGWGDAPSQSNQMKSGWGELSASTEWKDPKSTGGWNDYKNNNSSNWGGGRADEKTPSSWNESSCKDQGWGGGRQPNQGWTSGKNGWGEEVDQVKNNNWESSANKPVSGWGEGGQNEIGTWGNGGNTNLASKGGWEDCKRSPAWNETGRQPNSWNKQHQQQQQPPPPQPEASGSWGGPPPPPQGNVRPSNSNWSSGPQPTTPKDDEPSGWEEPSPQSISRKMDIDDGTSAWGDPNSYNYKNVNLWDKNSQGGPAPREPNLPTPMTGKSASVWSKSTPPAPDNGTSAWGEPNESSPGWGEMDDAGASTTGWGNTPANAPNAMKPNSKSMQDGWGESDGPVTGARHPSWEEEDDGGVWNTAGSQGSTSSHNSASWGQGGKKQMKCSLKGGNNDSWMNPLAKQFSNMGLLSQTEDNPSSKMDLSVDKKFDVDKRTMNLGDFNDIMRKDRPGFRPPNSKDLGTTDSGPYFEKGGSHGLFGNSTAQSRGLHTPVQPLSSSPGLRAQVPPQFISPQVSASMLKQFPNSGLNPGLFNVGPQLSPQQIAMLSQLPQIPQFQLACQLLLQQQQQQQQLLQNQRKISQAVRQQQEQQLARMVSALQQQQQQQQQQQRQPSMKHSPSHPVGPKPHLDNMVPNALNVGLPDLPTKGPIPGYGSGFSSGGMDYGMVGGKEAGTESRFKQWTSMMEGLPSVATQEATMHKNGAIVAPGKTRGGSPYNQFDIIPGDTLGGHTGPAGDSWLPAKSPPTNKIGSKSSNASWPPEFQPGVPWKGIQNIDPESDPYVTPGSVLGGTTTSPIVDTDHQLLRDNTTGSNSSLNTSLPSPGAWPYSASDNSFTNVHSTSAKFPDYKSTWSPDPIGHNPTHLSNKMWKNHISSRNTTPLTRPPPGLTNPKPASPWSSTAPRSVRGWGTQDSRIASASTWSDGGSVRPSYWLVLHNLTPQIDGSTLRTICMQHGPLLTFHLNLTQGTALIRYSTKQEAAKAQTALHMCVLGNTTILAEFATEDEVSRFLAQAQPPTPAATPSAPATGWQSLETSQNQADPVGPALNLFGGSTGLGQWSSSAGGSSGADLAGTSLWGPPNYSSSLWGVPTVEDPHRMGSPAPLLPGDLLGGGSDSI

The labels stand for the following.
B1: SH3RF1 (protein, UniProt Q69ZI1 1-892)
chain: MDESALLDLLECPVCLERLDASAKVLPCQHTFCKRCLLGIVGSRNELRCPECRTLVGSGVDELPSNILLVRLLDGIKQRPWKPGPGGGGGTTCTNTLRAQGSTVVNCGSKDLQSSQCGQQPRVQAWSPPVRGIPQLPCAKALYNYEGKEPGDLKFSKGDIIILRRQVDENWYHGEVSGVHGFFPTNFVQIIKPLPQPPPQCKALYDFEVKDKEADKDCLPFAKDDVLTVIRRVDENWAEGMLADKIGIFPISYVEFNSAAKQLIEWDKPPVPGVDTAECPSATAQSTSASKHPDTKKNTRKRHSFTSLTMANKSSQGSQNRHSMEISPPVLISSSNPTAAARISELSGLSCSAPSQVHISTTGLIVTPPPSSPVTTGPAFTFPSDVPYQAALGSMNPPLPPPPLLAATVLASTPSGATAAVAAAAAAAAAAGMGPRPVMGSSEQIAHLRPQTRPSVYVAIYPYTPRKEDELELRKGEMFLVFERCQDGWYKGTSMHTSKIGVFPGNYVAPVTRAVTNASQAKVSMSTAGQASRGVTMVSPSTAGGPTQKPQGNGVAGNPSVVPTAVVSAAHIQTSPQAKVLLHMSGQMTVNQARNAVRTVAAHSQERPTAAVTPIQVQNAACLGPASVGLPHHSLASQPLPPMAGPAAHGAAVSISRTNAPMACAAGASLASPNMTSAMLETEPSGRTVTILPGLPTSPESAASACGNSSAGKPDKDSKKEKKGLLKLLSGASTKRKPRVSPPASPTLDVELGAGEAPLQGAVGPELPLGGSHGRVGSCPTDGDGPVAAGTAALAQDAFHRKTSSLDSAVPIAPPPRQACSSLGPVMNEARPVVCERHRVVVSYPPQSEAELELKEGDIVFVHKKREDGWFKGTLQRNGKTGLFPGSFVENI
B2: VPS37A (protein, UniProt Q8CHS8 1-397)
chain: MSWLFPLAKSASSSAAGSPAGLTSLQQQKQRLIESLRNSHSSIAEIQKDVEYRLPFTVNNLTININILLPPQFPQEKPVISVYPPIRHHLMDSQGLYVTSPLVSNFTMHSDLGKIIQSLLDEFWKNPPVLAPTSTTFPYLYSNPGGMPPYPSQGFPFLPPYPPPEANRNITSLSVADTVSSSTTSYTAAKPVAPSFGILSSLPLPVPTTESSASVNQNGFGYKMPDIPDAFPELSELSVSQLTDMNEQEEVLLEQFLMLPQLKQIITDKEDLVKNIEELARKNLLLEHSLEGKRQTVLDKYELLLQMKSTFEKKMQRQHELSESCSASALQARLKVAAHEAEEESDNIAEDFLEGKTEIDDFLNSFKEKRTICHCRRAKEEKLHQVIAMHSQFHAPL

Results are given in words; binding and its absence hold for the method and conditions named. In cells and extracts the contact can be indirect. These calls come from enrichment with a bait or labelling near it, and not all partners need be listed.

This assay deals with NPHP3-BioID2-RAD23B (aa185-409) (human) (UniProt Q7Z494). As to the kind of experiment: proximity labelling; NPHP3-BioID2-RAD23B (aa185-409) stably expressed in IMCD3 Flp-In cells, starvation medium 48 h, 10 uM biotin for the last 24 h; RIPA lysis, StrepTactin Superflow beads 3 h at 4°C, on-bead trypsin digestion, label-free MS; enrichment against the NPHP3-BioID2 control line; 6 replicates per cell line.
Take ITSN1 (from UniProt Q9Z0R4 1-1714): the binding result is “binds”.

Regarding “NOTCH2 (from UniProt O35516 26-2473) (receptor)”, the binding result is “binds”.

Consider CEP152 (from UniProt A2AUM9 1-1736), for which the binding result is “binds”.

For “NOTCH1 (from UniProt Q01705 19-2531) (receptor)”, the binding entry is reported as “binds”.

As to “PIK3C2A (from UniProt Q61194 1-1686) (enzyme)”, the binding result is given as “binds”.

For the molecule C2CD3 (from UniProt Q52KB6 1-2323), the binding result is recorded as “binds”.

In the case of RELA (from UniProt Q04207 1-549), the binding entry is listed as “binds”.

For NEDD1 (from UniProt P33215 1-660), the binding entry is “binds”.

On to AMER1 (from UniProt Q7TS75 1-1132), for which the binding result is “binds”.

Turning to ITSN2 (from UniProt Q9Z0R6 1-1659), the binding result was “binds”.

With STAM2 (from UniProt O88811 1-523), the binding entry is “binds”.

Consider TOM1 (from UniProt O88746 1-492), for which the binding result was “binds”.

In the case of CEP350 (from UniProt E9Q309 1-3095), the binding result is “binds”.

As for TNRC6B (from UniProt Q8BKI2 1-1810), the binding result was “binds”.

Regarding B1, the binding entry was “binds”.

Consider B2, for which the binding entry is on record as “binds”.
